Patent US12214046B2, “Protein-loaded PLGA nanospheres” (West Virginia University Board of Governors on behalf of …, priority 2019, dated 2025)
The name of at least one read-out is uncertain.

What was measured:
Assay type in all cases: physicochemical
[1] = IL-12 stability upon sonication (ELISA recovery); settings: sonication past 30 seconds, all wattages (30, 40, 50 Watts)
[2] = IL-12 stability as a function of pH (ELISA recovery)
[3] = IL-12 stability as a function of organic solvent (ELISA recovery); settings: 1:1 solvent and phosphate-buffered salt solution

B1: IL-12: Recombinant mouse IL-12 (p70), immunostimulatory cytokine, purchased from Biolegend (protein, UniProt P43431 23-215; P43432 23-335, looked up)
Interleukin-12 subunit alpha: RVIPVSGPARCLSQSRNLLKTTDDMVKTAREKLKHYSCTAEDIDHEDITRDQTSTLKTCLPLELHKNESCLATRETSSTTRGSCLPPQKTSLMMTLCLGSIYEDLKMYQTEFQAINAALQNHNHQQIILDKGMLVAIDELMQSLNHNGETLRQKPPVGEADPYRVKMKLCILLHAFSTRVVTINRVMGYLSSA
Interleukin-12 subunit beta: MWELEKDVYVVEVDWTPDAPGETVNLTCDTPEEDDITWTSDQRHGVIGSGKTLTITVKEFLDAGQYTCHKGGETLSHSHLLLHKKENGIWSTEILKNFKNKTFLKCEAPNYSGRFTCSWLVQRNMDLKFNIKSSSSSPDSRAVTCGMASLSAEKVTLDQRDYEKYSVSCQEDVTCPTAEETLPIELALEARQQNKYENYSTSFFIRDIIKPDPPKNLQMKPLKNSQVEVSWEYPDSWSTPHSYFSLKFFVRIQRKKEKMKETEEGCNQKGAFLVEKTSTEVQCKGGNVCVQAQDRYYNSSCSKWACVPCRVRS
protein recovery after sonication [1]: less than 10% | IL-12 Recovery (%) ([2]; pH 1, 3 hours incubation, relative to initial concentration): 0% ± 0% | IL-12 Recovery (%) ([2]; pH 3, 3 hours incubation): 39.7% ± 8.44% | IL-12 Recovery (%) ([2]; pH 7.4, 3 hours incubation): 100% ± 0% | IL-12 Recovery (%) ([2]; pH 11, 3 hours incubation): 96.6% ± 6.08% | IL-12 Recovery (%) ([2]; pH 13, 3 hours incubation): 0% ± 0% | IL-12 Recovery (%) ([3]; AC (acetone)): 43% | IL-12 Recovery (%) ([3]; DCM, solvent removed by stirring): 49% | IL-12 Recovery (%) ([3]; EA (ethyl acetate)): 63%
